Reference: PubChem BioAssay AID248 (DTP/NCI, 2004)
The list does not hold the whole screen: it is rich in T/C values a quarter to a half above the control, in often repeated tests (any T/C) and in doses without a T/C. Other doses and runs of a compound stand elsewhere. T/C: endpoint of the treated group in % of that of the vehicle group. Some entries give survivors of the animals treated and no T/C: the source files T/C as zero there, which appears to mark a toxic dose or a test without result, not a measured value. Some doses without a T/C left all or most animals alive at the check, yet need not have been tolerated: the source hardly ever lists a survival T/C far under the control, and the zero likely stands for such cases as well. Survivors were counted at the toxicity check, usually on the fifth day, unless a day is given; later deaths do not show. Schedule codes are those of the source, taken here to give the interval after Q, in days (D) or hours (H), and the number of doses after X. Some schedule codes hold Z or #, which are not explained here. Some entries hold several experiments; the values are given in rising order. Some structures stand for samples that the source files as different forms (salt, stereo form or complex); doses refer to the form tested. For survival time, the PubChem record calls one and a half times the control and up active, and a quarter to a half above the control has no call in these data; cut-offs in other NCI protocols can differ.

Test system: L1210 leukemia ip in BDF1 mice, survival T/C
Experiment: NCI In Vivo Anticancer Drug Screen. Data for tumor model L1210 Leukemia (intraperitoneal) in B6D2F1 (BDF1) mice
Settings: T/C endpoint: mean survival time, higher T/C = longer survival
[1] = dose: 100.0 mg/kg/injection, schedule: Q01DX009 (ip), vehicle: Klucel (hydroxypropylcellulose) (HPC)
[2] = dose: 200.0 mg/kg/injection, schedule: Q01DX001 (ip), vehicle: saline
[3] = dose: 200.0 mg/kg/injection, schedule: Q01DX009 (ip), vehicle: Klucel (hydroxypropylcellulose) (HPC)
[4] = dose: 400.0 mg/kg/injection, schedule: Q01DX001 (ip), vehicle: saline
[5] = dose: 400.0 mg/kg/injection, schedule: Q01DX009 (ip), vehicle: Klucel (hydroxypropylcellulose) (HPC)
[6] = dose: 200.0 mg/kg/injection, schedule: Q04DX003 (ip), vehicle: saline
[7] = dose: 400.0 mg/kg/injection, schedule: Q04DX003 (ip), vehicle: saline
[8] = dose: 400.0 mg/kg/injection, schedule: Q04DX002 (ip), vehicle: Klucel (hydroxypropylcellulose) (HPC)
[9] = dose: 400.0 mg/kg/injection, schedule: Q04DX003 (ip), vehicle: saline with Tween-80
[10] = dose: 25.0 mg/kg/injection, schedule: Q04DX003 (ip), vehicle: saline
[11] = dose: 50.0 mg/kg/injection, schedule: Q01DX009 (ip), vehicle: saline with Tween-80
[12] = dose: 50.0 mg/kg/injection, schedule: Q04DX003 (ip), vehicle: saline
[13] = dose: 100.0 mg/kg/injection, schedule: Q04DX003 (ip), vehicle: saline
[14] = dose: 100.0 mg/kg/injection, schedule: Q04DX003 (ip), vehicle: Klucel (hydroxypropylcellulose) (HPC)
[15] = dose: 200.0 mg/kg/injection, schedule: Q04DX003 (ip), vehicle: Klucel (hydroxypropylcellulose) (HPC)
[16] = dose: 400.0 mg/kg/injection, schedule: Q04DX003 (ip), vehicle: Klucel (hydroxypropylcellulose) (HPC)
[17] = dose: 200.0 mg/kg/injection, schedule: Q01DX009 (ip), vehicle: saline with Tween-80

In the case of `C=CC[P+](c1ccccc1)(c1ccccc1)c1ccccc1`, the survivor count (dose: 25.0 mg/kg/injection, schedule: Q01DX009 (ip), vehicle: Klucel (hydroxypropylcellulose) (HPC)) is reported as 0 of 6, the survivor count (dose: 40.0 mg/kg/injection, schedule: Q01DX001 (ip), vehicle: saline) is reported as 1 of 6 and the survivor count (dose: 50.0 mg/kg/injection, schedule: Q01DX009 (ip), vehicle: Klucel (hydroxypropylcellulose) (HPC)) is reported as 0 of 6. The survivor count (dose: 80.0 mg/kg/injection, schedule: Q01DX001 (ip), vehicle: saline) was 0 of 6, the survivor count (dose: 100.0 mg/kg/injection, schedule: Q01DX001 (ip), vehicle: saline) was 2 of 4 and the survivor count [1] was 0 of 6. The survivor count [2] was 0 of 4, the survivor count [3] was 0 of 6 and the survivor count [4] was 0 of 4. For the same compound, the survivor count [5] was 0 of 6.
`NCCCCC(N)C(=O)NCCCCCCNCCCCCCNC(=O)C(N)CCCCN` (stereo unspecified) was tested, and the survivor count (dose: 300.0 mg/kg/injection, schedule: Q01DX Z (ip), vehicle: saline) was 0 of 6 and the survivor count [4] was 1 of 6.
`C[S+](C)C` was tested, and the survivor count [1] was 2 of 6, the survivor count [2] was 1 of 6 and the survivor count [3] was 0 of 6. For the same compound, the survivor count [6] was 0 of 6, the survivor count [4] was 0 of 6 and the survivor count [7] was 0 of 6.
`C#CC(C)OCC(C)OC` (stereo unspecified) was tested, and the survivor count (dose: 100.0 mg/kg/injection, schedule: Q01DX009 (ip), vehicle: acetone) was 3 of 6, the survivor count (dose: 200.0 mg/kg/injection, schedule: Q04DX003 (ip), vehicle: acetone) was 1 of 6 and the survivor count (dose: 400.0 mg/kg/injection, schedule: Q04DX003 (ip), vehicle: acetone) was 0 of 6.
In the case of `NC(CSSCC(N)=NCCCCCSC12CC3CC(CC(C3)C1)C2)=NCCCCCSC12CC3CC(CC(C3)C1)C2`, the survivor count (dose: 20.0 mg/kg/injection, schedule: Q04DX002 (ip), vehicle: Klucel (hydroxypropylcellulose) (HPC)) is reported as 2 of 3, the survivor count (dose: 40.0 mg/kg/injection, schedule: Q04DX002 (ip), vehicle: Klucel (hydroxypropylcellulose) (HPC)) is reported as 1 of 3 and the survivor count (dose: 100.0 mg/kg/injection, schedule: Q04DX002 (ip), vehicle: Klucel (hydroxypropylcellulose) (HPC)) is reported as 0 of 3. The survivor count (dose: 200.0 mg/kg/injection, schedule: Q04DX002 (ip), vehicle: Klucel (hydroxypropylcellulose) (HPC)) was 1 of 3 and the survivor count [8] was 0 of 3.
`CCCCCCCCCCCCCCCc1cc(=O)n(C)n1C` was tested, and the survivor count [9] was 3 of 6.
With `CCN(CC)C(=O)OCCCN(C)C` the survivor count [1] was 2 of 6, the survivor count [3] was 0 of 6 and the survivor count [7] was 0 of 6.
`CCN(CC)c1ccc(/C=N/Nc2nnc(N/N=C/c3ccc(N(CC)CC)cc3)c3ccccc23)cc1` was tested, and the survivor count [4] was 2 of 4.
With `CO/N=C(/C)C1(O)Cc2c(O)c3c(c(O)c2C(OC2CC(N)C(O)C(C)O2)C1)C(=O)c1c(OC)cccc1C3=O` (stereo unspecified) the survivor count (dose: 16.0 mg/kg/injection, schedule: Q04DX003 (ip), vehicle: water) was 5 of 10, the survivor count (dose: 25.0 mg/kg/injection, schedule: Q01DX009 (ip), vehicle: saline with Tween-80) was 8 of 10 and the survivor count [10] was 0 of 10. The survivor count [11] was 0 of 10, the survivor count [12] was 0 of 10 and the survivor count [13] was 0 of 10.
`O=C(Nc1ccc(C2=NCCN2)cc1)c1ccc(C(=O)Nc2ccc(C3=NCCN3)cc2)nc1` was tested, and the T/C (dose: 4.0 mg/kg/injection, schedule: Q01DX Z (ip), vehicle: saline) was 130 % of control, the T/C (dose: 8.0 mg/kg/injection, schedule: Q01DX Z (ip), vehicle: saline) was 143 % of control and the T/C (dose: 30.0 mg/kg/injection, schedule: Q01DX Z (ip), vehicle: carboxymethylcellulose (CMC)) was 138 % of control. The survivor count (dose: 120.0 mg/kg/injection, schedule: Q01DX Z (ip), vehicle: carboxymethylcellulose (CMC)) was 6 of 6.
`C/C=C1/CC(C)C(O)(CO)C(=O)OCC2=CCN3CCC(OC1=O)C23` (stereo unspecified) was tested, and the survivor count (dose: 150.0 mg/kg/injection, schedule: Q01DX001 (ip), vehicle: carboxymethylcellulose (CMC)) was 0 of 6 and the survivor count (dose: 300.0 mg/kg/injection, schedule: Q01DX001 (ip), vehicle: carboxymethylcellulose (CMC)) was 0 of 6.
In the case of `CC1(C)N=C(N)N=C(N)N1c1cccc(Cl)c1Cl`, the survivor count [14] is reported as 0 of 6, the survivor count [15] is reported as 0 of 6 and the survivor count [16] is reported as 0 of 6.
`CCN(CC)Cc1cc(Nc2cc(C)nc(/N=C(\N)Nc3cc(Cl)cc(Cl)c3)n2)ccc1O` was tested, and the survivor count (dose: 200.0 mg/kg/injection, schedule: Q04DX003 (ip), vehicle: saline with Tween-80) was 5 of 6 and the survivor count [9] was 3 of 6.
`O/N=C(\C=N\O)c1ccccc1` was tested, and the survivor count (dose: 400.0 mg/kg/injection, schedule: Q04DX003 (sc), vehicle: olive oil, sesame oil, peanut oil) was 6 of 6.
In the case of `Cc1ccc(CNc2ccc(Cl)cc2)cc1`, the survivor count [5] is reported as 2 of 6.
In the case of `CC(/C=C(\C)N1CCCC1)=[N+]1CCCC1`, the survivor count (dose: 3.12 mg/kg/injection, schedule: Q01DX009 (ip), vehicle: saline) is reported as 3 of 6, the survivor count (dose: 6.25 mg/kg/injection, schedule: Q04DX003 (ip), vehicle: saline) is reported as 2 of 6 and the survivor count (dose: 12.5 mg/kg/injection, schedule: Q04DX003 (ip), vehicle: saline) is reported as 0 of 6. The survivor count [10] was 0 of 6, the survivor count [12] was 1 of 6 and the survivor count [13] was 0 of 6. The survivor count [6] was 0 of 6 and the survivor count [7] was 0 of 6.
With `CC(C)c1nc(C=O)c(C=O)n1Cc1ccccc1` the survivor count (dose: 100.0 mg/kg/injection, schedule: Q04DX003 (ip), vehicle: carboxymethylcellulose (CMC)) was 6 of 6, the survivor count (dose: 200.0 mg/kg/injection, schedule: Q04DX002 (ip), vehicle: other) was 0 of 3 and the survivor count (dose: 200.0 mg/kg/injection, schedule: Q04DX003 (ip), vehicle: carboxymethylcellulose (CMC)) was 6 of 6. For the same compound, the survivor count [8] was 3 of 3, the survivor count (dose: 400.0 mg/kg/injection, schedule: Q04DX002 (ip), vehicle: other) was 0 of 3 and 0 of 6 and the survivor count (dose: 400.0 mg/kg/injection, schedule: Q04DX003 (ip), vehicle: carboxymethylcellulose (CMC)) was 6 of 6.
In the case of `Cc1cnc2c(=N)n(C(=O)C(F)(F)F)n(C)c2n1`, the survivor count [5] is reported as 3 of 6.
For `COc1nc(C)c(C)[n+]([O-])n1`, the survivor count (dose: 100.0 mg/kg/injection, schedule: Q01DX001 (ip), vehicle: saline with Tween-80) was 3 of 6, the survivor count (dose: 200.0 mg/kg/injection, schedule: Q01DX001 (ip), vehicle: saline with Tween-80) was 0 of 6 and the survivor count (dose: 400.0 mg/kg/injection, schedule: Q01DX001 (ip), vehicle: saline with Tween-80) was 0 of 6.
`CC1(C)OC2C(COC(=O)Oc3ccccc3)OC(n3cnc4c(=S)nc[nH]c43)C2O1` (stereo unspecified) was tested, and the survivor count [11] was 2 of 6, the survivor count [17] was 2 of 6 and the survivor count [16] was 2 of 6.
`CCCCCCCCCCCCCCCCCC(=O)N/N=C/c1ccccc1OC` was tested, and the survivor count [1] was 6 of 6, the survivor count [3] was 6 of 6 and the survivor count [5] was 5 of 6.
For `CNC(=Nc1ccccc1)c1ccc(NC(=O)c2ccc(C(=O)Nc3ccc(C(=Nc4ccccc4)NC)cc3)cc2)cc1`, the survivor count (dose: 120.0 mg/kg/injection, schedule: Q01DX Z (ip), vehicle: saline) was 2 of 6.
With `C[n+]1ccccc1CCC(=O)Nc1ccccc1` the survivor count [17] was 2 of 6 and the survivor count (dose: 400.0 mg/kg/injection, schedule: Q01DX009 (ip), vehicle: saline with Tween-80) was 0 of 6.
With `O=[As](O)(O)CCc1ccccc1` the survivor count (dose: 50.0 mg/kg/injection, schedule: Q04DX003 (ip), vehicle: Klucel (hydroxypropylcellulose) (HPC)) was 0 of 3, the survivor count [14] was 1 of 6 and the survivor count [15] was 0 of 6. The survivor count [16] was 0 of 6.
